Results of single-concentration screens

The chains behind the UniProt entries cited, without tags or fusion partners. Residues count along the entry.
UniProt P9WPC5, whole entry: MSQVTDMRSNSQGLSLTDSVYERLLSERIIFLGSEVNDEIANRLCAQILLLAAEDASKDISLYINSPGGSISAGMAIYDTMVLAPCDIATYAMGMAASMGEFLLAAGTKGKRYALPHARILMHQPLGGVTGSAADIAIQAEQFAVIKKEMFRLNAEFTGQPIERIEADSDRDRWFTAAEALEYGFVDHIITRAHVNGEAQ
UniProt P9WPC3, whole entry partner: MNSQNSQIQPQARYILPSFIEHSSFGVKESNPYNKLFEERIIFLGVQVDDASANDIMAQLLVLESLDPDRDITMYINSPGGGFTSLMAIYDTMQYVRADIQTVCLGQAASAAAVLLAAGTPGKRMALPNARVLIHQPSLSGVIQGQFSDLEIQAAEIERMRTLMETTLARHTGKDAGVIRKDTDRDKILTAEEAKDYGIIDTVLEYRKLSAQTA
UniProt P9WNZ1, whole entry: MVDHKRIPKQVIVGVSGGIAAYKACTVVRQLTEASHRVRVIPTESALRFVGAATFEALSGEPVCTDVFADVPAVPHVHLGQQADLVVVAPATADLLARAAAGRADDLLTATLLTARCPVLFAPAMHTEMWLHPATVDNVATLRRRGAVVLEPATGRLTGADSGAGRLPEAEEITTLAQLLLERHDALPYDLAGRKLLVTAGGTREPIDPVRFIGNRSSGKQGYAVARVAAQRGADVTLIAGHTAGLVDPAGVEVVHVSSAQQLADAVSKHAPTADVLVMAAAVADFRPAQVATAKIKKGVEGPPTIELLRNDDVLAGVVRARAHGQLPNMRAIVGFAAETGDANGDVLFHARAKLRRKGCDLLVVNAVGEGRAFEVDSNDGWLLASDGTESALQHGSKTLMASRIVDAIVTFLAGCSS
UniProt A4I591, 1-473: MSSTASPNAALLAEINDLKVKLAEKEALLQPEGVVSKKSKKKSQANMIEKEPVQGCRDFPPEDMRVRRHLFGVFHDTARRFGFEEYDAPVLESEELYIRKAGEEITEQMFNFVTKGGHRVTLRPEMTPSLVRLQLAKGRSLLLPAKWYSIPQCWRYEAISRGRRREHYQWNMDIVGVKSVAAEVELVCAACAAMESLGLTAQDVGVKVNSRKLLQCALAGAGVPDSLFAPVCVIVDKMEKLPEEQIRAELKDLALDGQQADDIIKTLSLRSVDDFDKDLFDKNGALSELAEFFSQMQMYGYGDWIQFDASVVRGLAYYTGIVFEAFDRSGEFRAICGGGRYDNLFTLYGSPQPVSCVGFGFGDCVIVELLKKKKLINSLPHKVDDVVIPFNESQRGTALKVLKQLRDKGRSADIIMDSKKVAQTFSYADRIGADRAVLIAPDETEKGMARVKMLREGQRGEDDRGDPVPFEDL

From ChEMBL document CHEMBL3988442, “University of Dundee, Small-Polar-MMV Screening Library” (2021).

Each number is a percent effect as filed.
The record does not define 0% and 100%; most values in the screen are far below 50% and negative numbers occur (in some assays of this library far below -100).
This is an unselected part of the compounds tested.
Two or more numbers in one place are separate tests of the same structure; such repeats can differ widely.

ClpP1P2: 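ClpP1P2, Mycobacterium tuberculosis (UniProt P9WPC5 and UniProt P9WPC3). Protease assay of ClpP1P2, read by the AMC dye that it sets free. Concentration: 50 µM. Higher reads as stronger inhibition, judged from the few compounds that gave an IC50. Most other retested compounds had strongly negative values. Size under these conditions: about 69,000 compounds, about 10 of them at 50% or above in at least one test.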
CoaBC: 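Enzyme assay of CoaBC with a phosphate dye (Biomol Green) read at 650 nm. Target: Coenzyme A biosynthesis protein CoaBC, Mycobacterium tuberculosis (UniProt P9WNZ1). Concentration: 30 µM. Higher reads as stronger inhibition, judged from the few compounds that gave an IC50. Most strong results did not repeat in a second test. About 67,000 compounds were tested under these conditions; 0.06% (about 40) showed 50% or more at least once.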
Leishmania in macrophages: 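Cell assay of Leishmania donovani living inside macrophages; the read-out is not stated. Compounds at 30 µM. Higher reads as stronger inhibition (inferred: compounds with an IC50 in retests scored well above the rest). Size under these conditions: about 69,000 compounds, about 1,000 of them at 50% or above in at least one test.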
LiHisRS: 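Enzyme assay of histidyl-tRNA synthetase; the read-out is not stated. Target: Histidine-tRNA ligase, Leishmania infantum (UniProt A4I591). Tested at 30 µM. Higher reads as stronger inhibition (inferred: compounds with an IC50 in retests scored well above the rest). The assay is labelled LdHisRS but filed under L. infantum. About 69,000 compounds were tested under these conditions; 0.6% (about 410) showed 50% or more at least once.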

- COc1ccc2c(C)c(C(=O)NCCCc3csc(N)n3)oc2c1 | ClpP1P2: 0.5719%; CoaBC: -0.8147%; Leishmania in macrophages: 14.45%; LiHisRS: -2.941%
- Cc1cc(CN2CCC(CNC(=O)c3ccc(O)c(Cl)c3)C2)[nH]n1 (stereo not shown) | ClpP1P2: -15.17%; CoaBC: -1.322%; Leishmania in macrophages: 1.285%; LiHisRS: 9.434%
- COc1ccc(CN(C)c2nccc(-c3cn(C)nc3C)n2)cc1 | ClpP1P2: 3.219%; CoaBC: 8.241%; Leishmania in macrophages: 31.28%; LiHisRS: 14.52%
- CC1(c2ncc(CN3CCN(c4ccccn4)CC3)cn2)CCCCO1 (stereo not shown) | ClpP1P2: -9.389%; CoaBC: 9.443%; Leishmania in macrophages: 29.49%; LiHisRS: 12.59%
- CCN(C(=O)C1CCC1)C(c1cccnc1)c1ccc2c(c1)CCO2 (stereo not shown) | ClpP1P2: 18.09%; CoaBC: -0.8485%; Leishmania in macrophages: -55.44%; LiHisRS: -1.613%
- CC(C)c1cc(NCC2(Cn3cccn3)CC2)n2nccc2n1 | ClpP1P2: -15.16%; CoaBC: -2.384%; Leishmania in macrophages: 17.49%; LiHisRS: 20.34%
- CC(O)CN1CCN(C(=O)c2cc3ccccc3c(=O)[nH]2)CC1 (stereo not shown) | ClpP1P2: -15.53%; CoaBC: 6.343%; Leishmania in macrophages: 18.87%; LiHisRS: 2.857%
- Cc1cn2c(n1)CCC(NC(=O)c1c[nH]c(C)n1)C2 (stereo not shown) | ClpP1P2: 1.23%; CoaBC: 4.302%; Leishmania in macrophages: 22.86%; LiHisRS: 20.27%
- O=C(O)C(F)(F)F.O=C(O)C(F)(F)F.O=C(O)C(F)(F)F.[H][C@@]12COC[C@]1(COCc1ccncc1)CN(Cc1ccncc1)C2 | Leishmania in macrophages: 8.91%
- CN(C)c1ncccc1CNCc1cccc(O)c1 | ClpP1P2: 4.416%; CoaBC: 2.795%; Leishmania in macrophages: 10.14%; LiHisRS: 26.09%
- CN(C)C(=O)CCNC(=O)Nc1cccc(Cl)c1-n1cccn1 | ClpP1P2: -4.23%; CoaBC: -4.439%; Leishmania in macrophages: -0.1725%; LiHisRS: 11.5%
- Nc1nc2c(c(N3CCCC(OCc4ccccn4)C3)n1)CCNCC2 (stereo not shown) | ClpP1P2: -2.965%; CoaBC: -5.432%; Leishmania in macrophages: 18.53%; LiHisRS: 6.993%
- CCc1ncc(C(=O)N(CC)CCOC)cn1 | ClpP1P2: 1.062%; CoaBC: 4.321%; Leishmania in macrophages: 35.02%; LiHisRS: 8.602%
- CCc1nc(C2CCCN2CC(=O)Nc2c(C)n[nH]c2C)no1 (stereo not shown) | ClpP1P2: -8.641%; CoaBC: -0.9639%; Leishmania in macrophages: -21.51%; LiHisRS: 0%
- CN(C)C(=O)CN1C[C@H]2CCN(Cc3ccccc3)CC[C@H]2S1(=O)=O | ClpP1P2: 4.374%; CoaBC: 10.32%; LiHisRS: 13.27%
- CSc1cccc(CNC(=O)C2CC(=O)N(CCN(C)C)C2)c1 (stereo not shown) | ClpP1P2: -3.949%; CoaBC: 1.786%; Leishmania in macrophages: 3.439%; LiHisRS: 10.68%
- CCOCc1cc(CN2CCn3c(CO)nnc3C2)ccc1OC.O=C(O)CC(O)(CC(=O)O)C(=O)O | Leishmania in macrophages: 14.68% and 21.31%
- CCOc1cc(C(=O)N2CCN(C)CC2)cc2occc12 | ClpP1P2: -9.153%; CoaBC: 1.02%; Leishmania in macrophages: 34.56%; LiHisRS: 11.11%
- O=C(O)[C@@H]1CN(C(=O)c2ccc3nccnc3c2)C[C@H]1c1ccncc1 | ClpP1P2: 1.301%; CoaBC: 1.261%; Leishmania in macrophages: 16.88%; LiHisRS: 17.95%
- COc1cc(CNC(C)Cn2ccnc2)cc2c1OCO2.Cl (stereo not shown) | Leishmania in macrophages: 17.19%
- Cc1cc(=O)n2ncnc2n1CC(O)c1ccccc1 (stereo not shown) | ClpP1P2: -14.41%; CoaBC: 2.195%; Leishmania in macrophages: 14.43%; LiHisRS: 16%
- CNC(=O)[C@@H]1[C@@H](OC(=O)Nc2ccccc2)C(=O)N(C)C12CCNCC2 | ClpP1P2: -1.6%; CoaBC: 1.695%; Leishmania in macrophages: 1.059%; LiHisRS: 8.163%
- C=C(C)COc1cccc(CN(CC)Cc2noc(C)n2)c1 | ClpP1P2: -23%; CoaBC: 0.7317%; Leishmania in macrophages: 15.35%; LiHisRS: -4.8%
- [H][C@@]12C[C@@H](Oc3ccccc3)C[C@]1([H])CN(C(=O)c1cnn(C)c1)C2 | Leishmania in macrophages: 6.454%
- O=C(O)C(F)(F)F.c1ccn(Cc2noc3c2CN(Cc2ccsc2)CC3)c1 | Leishmania in macrophages: 15.75%
- COCCN(C)C(C)Cc1ccccc1OC (stereo not shown) | ClpP1P2: 3.612%; CoaBC: -1.984%; Leishmania in macrophages: -7.016%; LiHisRS: 4.464%
- O=C(O)C(F)(F)F.O=C(O)C(F)(F)F.O=c1ccc2c(n1CCN1CCCC1)CCN(Cc1ccoc1)CC2 | Leishmania in macrophages: 45%
- CCn1ccnc1CN(C)Cc1nc(Cc2ccccc2Cl)no1 | ClpP1P2: -12.88%; CoaBC: -2.903%; Leishmania in macrophages: -9.453%; LiHisRS: -19.74%
- Cc1nn(Cn2ccc(C(=O)N3CCCCCC3)n2)c(C)c1Cl | ClpP1P2: 5.191%; CoaBC: 4.027%; Leishmania in macrophages: 4.812%; LiHisRS: 26.44%
- CS(=O)(=O)c1snnc1C1CCN(Cc2ccncc2)CC1 | ClpP1P2: -2.853%; CoaBC: -0.5556%; Leishmania in macrophages: 10.23%; LiHisRS: 5.556%
- Cc1ccc(N2CCCC3(CCN(C(=O)c4sccc4C)C3)C2)nn1 (stereo not shown) | ClpP1P2: 5.658%; CoaBC: 3.941%; Leishmania in macrophages: 11.74%; LiHisRS: 14%
- Nc1cc2c(nn1)CCN(C(=O)c1csc(-c3cccs3)n1)C2 | ClpP1P2: 0.3798%; CoaBC: 1.613%; Leishmania in macrophages: 8.547%; LiHisRS: 13.16%

Some entries from above, unchanged:

| compound | ClpP1P2 | CoaBC | Leishmania in macrophages | LiHisRS |
|---|---|---|---|---|
| `Nc1cc2c(nn1)CCN(C(=O)c1csc(-c3cccs3)n1)C2` | 0.3798 | 1.613 | 8.547 | 13.16 |
| `COCCN(C)C(C)Cc1ccccc1OC` (stereo not shown) | 3.612 | -1.984 | -7.016 | 4.464 |
| `O=C(O)[C@@H]1CN(C(=O)c2ccc3nccnc3c2)C[C@H]1c1ccncc1` | 1.301 | 1.261 | 16.88 | 17.95 |
| `COc1ccc(CN(C)c2nccc(-c3cn(C)nc3C)n2)cc1` | 3.219 | 8.241 | 31.28 | 14.52 |